Assay results reported in US20090226956.

Amino acid sequences for entries named in this document (tags omitted). Chains listed by the source or under a name are the forms on record and can include a tag or linker.
UniProt Q13950, other isoform, or with tags, fused parts or gaps: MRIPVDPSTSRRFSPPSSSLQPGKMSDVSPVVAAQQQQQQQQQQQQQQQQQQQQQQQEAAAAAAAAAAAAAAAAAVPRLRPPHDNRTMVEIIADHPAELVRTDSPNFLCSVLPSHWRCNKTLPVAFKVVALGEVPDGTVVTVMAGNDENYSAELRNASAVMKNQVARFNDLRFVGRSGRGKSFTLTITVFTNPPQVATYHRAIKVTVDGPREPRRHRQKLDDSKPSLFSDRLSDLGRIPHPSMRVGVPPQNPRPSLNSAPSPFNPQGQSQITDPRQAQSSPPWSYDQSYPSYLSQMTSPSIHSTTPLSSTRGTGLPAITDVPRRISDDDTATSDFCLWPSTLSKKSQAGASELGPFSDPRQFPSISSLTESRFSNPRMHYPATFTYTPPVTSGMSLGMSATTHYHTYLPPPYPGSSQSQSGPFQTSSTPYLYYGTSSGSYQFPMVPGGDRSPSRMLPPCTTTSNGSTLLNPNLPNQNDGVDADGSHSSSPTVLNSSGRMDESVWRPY
UniProt Q01196, whole entry: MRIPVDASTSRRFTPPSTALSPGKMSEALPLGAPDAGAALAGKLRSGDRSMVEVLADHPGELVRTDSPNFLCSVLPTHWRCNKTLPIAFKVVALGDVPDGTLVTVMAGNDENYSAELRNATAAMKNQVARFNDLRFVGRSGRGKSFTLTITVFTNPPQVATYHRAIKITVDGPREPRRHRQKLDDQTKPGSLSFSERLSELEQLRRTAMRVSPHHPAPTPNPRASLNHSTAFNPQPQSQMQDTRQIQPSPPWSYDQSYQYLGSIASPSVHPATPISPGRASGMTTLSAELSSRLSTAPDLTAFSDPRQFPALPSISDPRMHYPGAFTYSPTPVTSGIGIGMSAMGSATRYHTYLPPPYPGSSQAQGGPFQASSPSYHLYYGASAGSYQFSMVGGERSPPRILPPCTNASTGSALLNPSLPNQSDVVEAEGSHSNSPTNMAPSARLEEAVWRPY
UniProt Q08775, other isoform, or with tags, fused parts or gaps: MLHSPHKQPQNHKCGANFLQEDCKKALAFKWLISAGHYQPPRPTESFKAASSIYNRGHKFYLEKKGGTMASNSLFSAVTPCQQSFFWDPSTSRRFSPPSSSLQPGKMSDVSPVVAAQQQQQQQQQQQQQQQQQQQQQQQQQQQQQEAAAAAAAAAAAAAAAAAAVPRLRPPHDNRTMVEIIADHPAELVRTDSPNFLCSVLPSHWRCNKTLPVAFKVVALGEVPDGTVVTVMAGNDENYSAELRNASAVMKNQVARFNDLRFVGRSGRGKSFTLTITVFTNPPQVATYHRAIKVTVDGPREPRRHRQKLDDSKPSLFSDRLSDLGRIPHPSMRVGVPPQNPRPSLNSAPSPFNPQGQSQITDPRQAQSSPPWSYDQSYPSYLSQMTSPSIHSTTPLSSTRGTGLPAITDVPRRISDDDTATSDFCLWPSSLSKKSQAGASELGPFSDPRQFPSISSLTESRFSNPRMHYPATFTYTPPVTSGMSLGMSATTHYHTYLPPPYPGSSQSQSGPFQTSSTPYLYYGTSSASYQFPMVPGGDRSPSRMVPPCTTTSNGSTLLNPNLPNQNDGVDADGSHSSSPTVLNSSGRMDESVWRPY

Legend:
Experiment in all cases: EMSA
Runx2 (Homo sapiens) = Runx2 (Homo sapiens) (UniProt Q13950); settings: protein in an extract; protein details: endogenous, PC3 whole cell extract; label: 32P
Runx1 (Homo sapiens) = Runx1 (Homo sapiens) (UniProt Q01196); settings: protein in an extract; protein details: endogenous, PC3 whole cell extract; label: 32P
Runx2 (Mus musculus) = Runx2 (Mus musculus) (UniProt Q08775); settings: complex sensitive to native but not boiled Runx2 antibody; inhibited by GST-AR-DBD, not by GST or A573D mutant; 20 mM Hepes pH 7.5, 50 mM KCl, 1 mM MgCl2, on ice; protein in an extract; protein details: endogenous, MC3T3-E1 whole cell extract; label: 32P

Measured: binding result

AGCTGCAATCACCAACCACAGCA (double strand) [OSE2 probe]
binds: all assays above

At least one result comes from cells or an extract, where the contact may be indirect. For part of these data: For at least one entry, the source does not settle the construct or the ends of the probe.
